The values below come from the supplement of paper PMC11732987, “Enantioselective OTUD7B fragment discovery through chemoproteomics screening and high-throughput optimisation” (Communications Chemistry, 2025).

By UniProt entry, the sequences of proteins in these tests, tags left out. Where a name states a change or a piece, a line headed by the entry shows the natural chain unless it says otherwise. Residues count along the entry.
UniProt Q9BT17: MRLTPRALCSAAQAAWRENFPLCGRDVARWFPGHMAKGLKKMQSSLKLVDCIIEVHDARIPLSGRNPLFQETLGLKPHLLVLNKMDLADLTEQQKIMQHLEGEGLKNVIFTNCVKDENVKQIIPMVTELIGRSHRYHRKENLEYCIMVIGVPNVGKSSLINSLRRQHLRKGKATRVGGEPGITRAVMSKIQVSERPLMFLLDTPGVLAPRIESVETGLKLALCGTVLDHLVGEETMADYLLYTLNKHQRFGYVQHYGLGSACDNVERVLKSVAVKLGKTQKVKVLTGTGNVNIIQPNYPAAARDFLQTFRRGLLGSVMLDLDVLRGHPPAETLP
UniProt Q12965: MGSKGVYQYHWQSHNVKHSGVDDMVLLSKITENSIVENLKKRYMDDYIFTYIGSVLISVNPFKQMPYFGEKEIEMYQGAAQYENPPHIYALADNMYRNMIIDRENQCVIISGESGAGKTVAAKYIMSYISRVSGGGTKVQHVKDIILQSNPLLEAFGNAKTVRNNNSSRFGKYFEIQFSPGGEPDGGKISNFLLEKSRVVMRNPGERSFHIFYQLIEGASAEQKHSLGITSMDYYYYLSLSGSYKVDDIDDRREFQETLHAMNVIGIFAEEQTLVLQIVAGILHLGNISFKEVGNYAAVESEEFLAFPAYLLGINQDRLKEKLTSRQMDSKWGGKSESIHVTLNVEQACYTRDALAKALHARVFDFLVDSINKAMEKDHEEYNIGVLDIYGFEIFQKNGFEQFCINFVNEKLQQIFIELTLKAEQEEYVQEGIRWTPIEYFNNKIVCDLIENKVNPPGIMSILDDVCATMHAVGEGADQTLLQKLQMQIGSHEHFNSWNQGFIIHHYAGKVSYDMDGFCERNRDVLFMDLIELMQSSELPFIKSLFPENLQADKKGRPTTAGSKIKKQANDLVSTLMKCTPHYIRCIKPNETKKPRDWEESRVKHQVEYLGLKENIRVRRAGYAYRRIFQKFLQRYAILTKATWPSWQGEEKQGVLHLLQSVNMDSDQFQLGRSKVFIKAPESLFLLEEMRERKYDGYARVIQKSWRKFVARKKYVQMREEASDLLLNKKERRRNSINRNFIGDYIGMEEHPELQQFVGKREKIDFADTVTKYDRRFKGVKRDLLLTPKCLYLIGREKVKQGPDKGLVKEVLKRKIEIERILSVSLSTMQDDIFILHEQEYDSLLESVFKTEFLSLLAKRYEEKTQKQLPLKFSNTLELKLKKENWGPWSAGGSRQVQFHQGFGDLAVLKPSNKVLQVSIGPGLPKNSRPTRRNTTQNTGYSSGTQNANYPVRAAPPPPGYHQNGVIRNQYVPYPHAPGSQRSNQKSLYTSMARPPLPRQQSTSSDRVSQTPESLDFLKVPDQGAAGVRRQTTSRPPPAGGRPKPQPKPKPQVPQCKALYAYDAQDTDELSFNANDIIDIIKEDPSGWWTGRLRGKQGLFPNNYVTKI
UniProt Q9Y2Z2: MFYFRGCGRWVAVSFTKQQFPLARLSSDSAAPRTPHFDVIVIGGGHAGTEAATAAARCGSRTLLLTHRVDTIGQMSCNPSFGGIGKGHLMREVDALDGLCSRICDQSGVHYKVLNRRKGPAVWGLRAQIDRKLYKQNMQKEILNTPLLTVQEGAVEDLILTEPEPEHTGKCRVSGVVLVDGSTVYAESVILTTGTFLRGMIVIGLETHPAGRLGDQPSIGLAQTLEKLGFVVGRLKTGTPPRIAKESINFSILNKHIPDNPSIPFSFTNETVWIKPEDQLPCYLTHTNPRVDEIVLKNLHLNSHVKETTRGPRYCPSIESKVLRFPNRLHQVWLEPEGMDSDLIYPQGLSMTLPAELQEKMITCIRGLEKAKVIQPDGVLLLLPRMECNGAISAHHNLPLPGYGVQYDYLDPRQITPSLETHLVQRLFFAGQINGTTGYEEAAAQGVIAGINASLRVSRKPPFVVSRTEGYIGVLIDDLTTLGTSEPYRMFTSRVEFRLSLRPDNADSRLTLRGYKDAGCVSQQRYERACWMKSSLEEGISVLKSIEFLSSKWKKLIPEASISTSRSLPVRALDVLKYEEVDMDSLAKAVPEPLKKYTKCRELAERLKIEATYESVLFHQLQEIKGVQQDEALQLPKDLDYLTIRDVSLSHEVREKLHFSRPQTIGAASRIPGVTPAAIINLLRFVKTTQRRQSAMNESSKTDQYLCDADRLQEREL
UniProt P61599, whole entry, looked up: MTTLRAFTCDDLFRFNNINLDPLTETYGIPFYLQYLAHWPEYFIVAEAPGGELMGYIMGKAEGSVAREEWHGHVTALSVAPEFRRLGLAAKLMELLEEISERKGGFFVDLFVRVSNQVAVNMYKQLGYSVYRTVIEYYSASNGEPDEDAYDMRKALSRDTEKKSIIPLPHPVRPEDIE
UniProt O43795: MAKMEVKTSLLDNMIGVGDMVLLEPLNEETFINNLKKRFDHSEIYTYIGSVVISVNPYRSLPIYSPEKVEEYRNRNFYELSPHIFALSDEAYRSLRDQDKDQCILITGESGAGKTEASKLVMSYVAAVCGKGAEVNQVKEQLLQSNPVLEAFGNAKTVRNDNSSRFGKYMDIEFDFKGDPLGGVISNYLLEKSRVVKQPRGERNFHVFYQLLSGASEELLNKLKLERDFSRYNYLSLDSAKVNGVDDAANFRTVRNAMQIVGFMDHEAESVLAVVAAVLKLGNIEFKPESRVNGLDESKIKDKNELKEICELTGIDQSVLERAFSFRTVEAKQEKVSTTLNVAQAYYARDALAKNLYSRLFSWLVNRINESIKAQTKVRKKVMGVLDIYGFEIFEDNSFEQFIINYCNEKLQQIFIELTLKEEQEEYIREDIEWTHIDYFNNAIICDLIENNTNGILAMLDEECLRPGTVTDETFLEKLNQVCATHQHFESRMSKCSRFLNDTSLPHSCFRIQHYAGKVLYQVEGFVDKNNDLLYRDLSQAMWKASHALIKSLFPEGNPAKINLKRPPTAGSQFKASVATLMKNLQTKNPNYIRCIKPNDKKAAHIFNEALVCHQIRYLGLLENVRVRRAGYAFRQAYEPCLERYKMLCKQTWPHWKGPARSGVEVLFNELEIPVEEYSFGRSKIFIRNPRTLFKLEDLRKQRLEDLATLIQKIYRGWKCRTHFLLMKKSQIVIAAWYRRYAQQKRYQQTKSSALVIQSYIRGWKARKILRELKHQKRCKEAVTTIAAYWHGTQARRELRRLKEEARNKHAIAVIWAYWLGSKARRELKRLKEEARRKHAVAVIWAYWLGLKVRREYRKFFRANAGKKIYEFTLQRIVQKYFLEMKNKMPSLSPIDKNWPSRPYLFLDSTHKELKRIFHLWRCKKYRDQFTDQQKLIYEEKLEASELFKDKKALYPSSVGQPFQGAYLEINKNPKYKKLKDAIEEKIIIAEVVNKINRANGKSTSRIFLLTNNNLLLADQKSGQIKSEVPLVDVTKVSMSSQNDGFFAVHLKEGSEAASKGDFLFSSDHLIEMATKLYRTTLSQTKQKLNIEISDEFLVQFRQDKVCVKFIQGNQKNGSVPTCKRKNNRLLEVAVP
UniProt P49914: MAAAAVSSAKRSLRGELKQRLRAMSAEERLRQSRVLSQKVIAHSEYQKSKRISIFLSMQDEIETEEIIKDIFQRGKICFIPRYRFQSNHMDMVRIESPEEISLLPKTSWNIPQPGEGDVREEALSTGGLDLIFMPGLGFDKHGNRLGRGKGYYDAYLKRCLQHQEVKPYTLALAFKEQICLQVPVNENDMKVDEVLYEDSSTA
UniProt P42285: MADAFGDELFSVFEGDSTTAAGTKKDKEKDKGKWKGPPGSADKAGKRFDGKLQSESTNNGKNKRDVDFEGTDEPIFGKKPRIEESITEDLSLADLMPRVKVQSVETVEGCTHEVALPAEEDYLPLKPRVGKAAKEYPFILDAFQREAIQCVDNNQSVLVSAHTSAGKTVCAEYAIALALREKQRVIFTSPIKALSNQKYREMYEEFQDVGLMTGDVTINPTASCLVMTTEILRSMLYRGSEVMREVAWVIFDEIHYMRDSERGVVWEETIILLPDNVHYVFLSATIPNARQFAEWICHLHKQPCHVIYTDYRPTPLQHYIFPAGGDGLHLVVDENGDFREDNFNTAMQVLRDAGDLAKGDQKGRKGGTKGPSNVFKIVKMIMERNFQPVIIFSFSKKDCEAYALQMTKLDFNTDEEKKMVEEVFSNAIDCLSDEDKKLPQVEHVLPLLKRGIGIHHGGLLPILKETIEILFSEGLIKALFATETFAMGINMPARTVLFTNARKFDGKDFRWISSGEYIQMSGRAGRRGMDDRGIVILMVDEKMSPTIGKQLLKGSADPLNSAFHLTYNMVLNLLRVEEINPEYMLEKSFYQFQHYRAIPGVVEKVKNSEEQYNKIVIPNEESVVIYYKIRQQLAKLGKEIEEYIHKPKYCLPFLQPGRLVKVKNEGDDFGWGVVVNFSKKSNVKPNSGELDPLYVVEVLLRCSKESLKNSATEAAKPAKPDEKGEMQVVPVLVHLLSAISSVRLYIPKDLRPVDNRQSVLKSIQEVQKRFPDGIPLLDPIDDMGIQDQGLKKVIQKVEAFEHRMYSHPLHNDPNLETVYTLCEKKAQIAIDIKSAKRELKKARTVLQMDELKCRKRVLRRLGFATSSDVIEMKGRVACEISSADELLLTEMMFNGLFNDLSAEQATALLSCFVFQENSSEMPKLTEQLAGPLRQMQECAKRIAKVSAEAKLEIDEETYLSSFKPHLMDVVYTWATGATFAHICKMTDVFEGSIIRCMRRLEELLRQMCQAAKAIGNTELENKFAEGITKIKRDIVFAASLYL
UniProt Q13459, 2016-2045: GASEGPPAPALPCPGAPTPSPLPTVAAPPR
UniProt Q9HCI7: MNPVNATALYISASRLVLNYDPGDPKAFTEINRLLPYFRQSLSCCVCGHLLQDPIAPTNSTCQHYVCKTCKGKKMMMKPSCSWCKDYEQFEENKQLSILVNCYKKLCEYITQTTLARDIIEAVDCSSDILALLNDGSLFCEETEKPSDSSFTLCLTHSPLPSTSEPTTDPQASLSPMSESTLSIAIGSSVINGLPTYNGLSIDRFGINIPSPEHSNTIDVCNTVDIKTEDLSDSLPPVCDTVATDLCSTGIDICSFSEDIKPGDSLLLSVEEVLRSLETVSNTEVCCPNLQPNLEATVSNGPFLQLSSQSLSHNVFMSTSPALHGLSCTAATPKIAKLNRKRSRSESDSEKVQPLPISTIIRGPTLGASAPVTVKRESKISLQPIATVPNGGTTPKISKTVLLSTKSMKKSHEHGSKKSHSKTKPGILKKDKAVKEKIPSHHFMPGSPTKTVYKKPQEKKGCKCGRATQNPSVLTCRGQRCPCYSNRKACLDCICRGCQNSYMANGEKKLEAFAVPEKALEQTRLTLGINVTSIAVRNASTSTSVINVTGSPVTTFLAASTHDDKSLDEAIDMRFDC
UniProt Q5VVJ2: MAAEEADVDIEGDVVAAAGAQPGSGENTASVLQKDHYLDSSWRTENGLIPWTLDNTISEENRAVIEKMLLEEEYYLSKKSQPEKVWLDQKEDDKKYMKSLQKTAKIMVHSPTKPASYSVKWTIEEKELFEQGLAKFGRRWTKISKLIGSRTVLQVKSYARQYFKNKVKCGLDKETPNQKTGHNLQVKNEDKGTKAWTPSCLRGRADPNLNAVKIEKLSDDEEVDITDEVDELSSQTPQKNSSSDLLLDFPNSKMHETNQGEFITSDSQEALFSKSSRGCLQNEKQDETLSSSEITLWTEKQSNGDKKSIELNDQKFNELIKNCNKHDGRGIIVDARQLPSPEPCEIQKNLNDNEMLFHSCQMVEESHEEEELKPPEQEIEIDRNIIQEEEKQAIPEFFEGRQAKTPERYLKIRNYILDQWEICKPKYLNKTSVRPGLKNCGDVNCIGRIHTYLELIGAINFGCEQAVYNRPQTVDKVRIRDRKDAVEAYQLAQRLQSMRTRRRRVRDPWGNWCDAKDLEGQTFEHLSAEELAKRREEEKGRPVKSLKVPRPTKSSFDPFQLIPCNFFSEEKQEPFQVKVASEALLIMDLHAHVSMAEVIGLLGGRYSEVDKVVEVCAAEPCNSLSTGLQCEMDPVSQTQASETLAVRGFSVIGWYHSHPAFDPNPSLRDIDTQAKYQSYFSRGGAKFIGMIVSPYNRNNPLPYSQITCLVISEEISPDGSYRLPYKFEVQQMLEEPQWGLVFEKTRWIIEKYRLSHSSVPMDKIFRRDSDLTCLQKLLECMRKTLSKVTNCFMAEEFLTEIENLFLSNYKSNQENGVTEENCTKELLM
UniProt Q9NXD2, 92-115: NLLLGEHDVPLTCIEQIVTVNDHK
UniProt Q86UW6, 1075-1097: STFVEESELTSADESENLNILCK
UniProt Q2M296: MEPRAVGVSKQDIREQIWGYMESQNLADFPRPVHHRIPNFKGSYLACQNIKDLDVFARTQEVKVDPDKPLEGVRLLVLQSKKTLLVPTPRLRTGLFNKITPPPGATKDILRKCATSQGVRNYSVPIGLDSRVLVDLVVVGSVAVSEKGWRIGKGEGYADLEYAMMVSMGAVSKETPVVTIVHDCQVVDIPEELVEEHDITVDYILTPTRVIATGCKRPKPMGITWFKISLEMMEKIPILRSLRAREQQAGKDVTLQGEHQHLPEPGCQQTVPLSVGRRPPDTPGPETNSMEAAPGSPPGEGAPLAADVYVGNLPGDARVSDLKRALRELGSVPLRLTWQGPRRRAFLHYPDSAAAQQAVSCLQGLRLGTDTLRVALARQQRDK

This is one part of the list. The data scatter; read single values as rough.

Compound in one assay: ClCC(=O)N[C@@H]1CCCc2ccccc12
Description: log2 mean competition ratio of IA-DTB cysteine labelling (DMSO/compound) (log2 ratio); higher = stronger cysteine engagement by compound. To be noted: 50 µM; treatment time: 4 h; cell line lysate: HEK293T. The method, then:
(§1)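 IA-DTB competitive cysteine chemoproteomics in HEK293T RIPA lysate. Lysates were treated with compound 29 or 30 at 50 or 200 µM for 4 h, then IA-DTB (500 µM, 1 h), trypsin-digested, NeutrAvidin-enriched and analysed by diaPASEF. Competition ratio = intensity DMSO / intensity compound (n=4 treated, n=64 DMSO); binding: mean log2 CR ≥ 1 and p ≤ 0.05 plus QC filters. Target is the cysteine site.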
With MTG1 C23 (UniProt Q9BT17), the “log2 mean competition ratio” value was found to be 0.0456.

On to MSH6 C579 (UniProt P52701), for which the “log2 mean competition ratio” value amounted to 0.197.

Regarding MVD C108 (UniProt P53602), the “log2 mean competition ratio” value was 0.00625.

For MRPS2 C162 (UniProt Q9Y399), the “log2 mean competition ratio” value was -0.024.

For MRPL53 C21 (UniProt Q96EL3), the “log2 mean competition ratio” value stood at 0.133.

For the target MYO1E C586 (UniProt Q12965), the “log2 mean competition ratio” value came to 0.187.

With MTMR4 C755 (UniProt Q9NYA4), the “log2 mean competition ratio” value is -0.43.

Regarding MTO1 C707 (UniProt Q9Y2Z2), the “log2 mean competition ratio” value was found to be 0.107.

As for MTMR14 C429 (UniProt Q8NCE2), the “log2 mean competition ratio” value was -0.109.

In the case of NAA20 C9 (UniProt P61599), the “log2 mean competition ratio” value was -0.195.

Regarding MRPL53 C49 (UniProt Q96EL3), the “log2 mean competition ratio” value is -0.202.

As for MYCBP2 C1475 (UniProt O75592), the “log2 mean competition ratio” value is 0.182.

As for MYCBP2 C1497 (UniProt O75592), the “log2 mean competition ratio” value is -0.205.

With MTFMT C365 (UniProt Q96DP5), the “log2 mean competition ratio” value was determined as 0.0178.

As to MTARC1 C273, the “log2 mean competition ratio” value is -0.295.

Turning to MYCBP2 C2169 (UniProt O75592), the “log2 mean competition ratio” value stood at 0.371.

With MYO1B C310 (UniProt O43795), the “log2 mean competition ratio” value was -0.334.

Take MTHFS C180 (UniProt P49914): the “log2 mean competition ratio” value was -0.012.

Take MTERF4 C69 (UniProt Q7Z6M4): the “log2 mean competition ratio” value was -0.0518.

Take “MTMR1_(C170,C170,C176,C176) (UniProt Q13613)”: the “log2 mean competition ratio” value is -0.185.

Regarding MYO1B C483 (UniProt O43795), the “log2 mean competition ratio” value is 0.458.

As to MSH3 C847 (UniProt P20585), the “log2 mean competition ratio” value was 0.0663.

For the target MRPL18 C125 (UniProt Q9H0U6), the “log2 mean competition ratio” value turned out to be 0.0516.

For the target MRPL27 C88 (UniProt Q9P0M9), the “log2 mean competition ratio” value worked out at 0.0139.

Consider MTM1 C375 (UniProt Q13496), for which the “log2 mean competition ratio” value was -0.3.

On to MTREX C938 (UniProt P42285), for which the “log2 mean competition ratio” value was -0.366.

Take MSH6 C88 (UniProt P52701): the “log2 mean competition ratio” value came to 0.295.

With MYO9B C2028 (UniProt Q13459), the “log2 mean competition ratio” value is -0.132.

Turning to MSL2 C476 (UniProt Q9HCI7), the “log2 mean competition ratio” value is -0.058.

Take MYORG C125: the “log2 mean competition ratio” value is -0.0904.

For the target MYSM1 C822 (UniProt Q5VVJ2), the “log2 mean competition ratio” value was -0.279.

As for MRPL44 C167 (UniProt Q9H9J2), the “log2 mean competition ratio” value was -0.272.

For the target MTMR10 C104 (UniProt Q9NXD2), the “log2 mean competition ratio” value is -0.367.

Regarding MTR C432 (UniProt Q99707), the “log2 mean competition ratio” value was 0.293.

Take N4BP2 C1096 (UniProt Q86UW6): the “log2 mean competition ratio” value is -0.191.

For MTHFSD C47 (UniProt Q2M296), the “log2 mean competition ratio” value was 0.4.

Regarding MYH9 C1379 (UniProt P35579), the “log2 mean competition ratio” value was -0.294.

Still in this assay, the particulars now being: 200 µM; treatment time: 4 h; cell line lysate: HEK293T.
As to MTG1 C23 (UniProt Q9BT17), the “log2 mean competition ratio” value was determined as 0.0346.

As to MSH6 C579 (UniProt P52701), the “log2 mean competition ratio” value was -0.0249.

Regarding MVD C108 (UniProt P53602), the “log2 mean competition ratio” value is 0.491.

Take MRPS2 C162 (UniProt Q9Y399): the “log2 mean competition ratio” value was -0.152.

MRPL53 C21 (UniProt Q96EL3): the “log2 mean competition ratio” value was -0.0267.

Turning to MYO1E C586 (UniProt Q12965), the “log2 mean competition ratio” value is -0.29.

MTMR4 C755 (UniProt Q9NYA4): the “log2 mean competition ratio” value is 0.235.

Take MTO1 C707 (UniProt Q9Y2Z2): the “log2 mean competition ratio” value is 0.344.

For MTMR14 C429 (UniProt Q8NCE2), the “log2 mean competition ratio” value was -0.152.

NAA20 C9 (UniProt P61599): the “log2 mean competition ratio” value is -0.264.

MRPL53 C49 (UniProt Q96EL3): the “log2 mean competition ratio” value is 0.0417.

In the case of MYCBP2 C1475 (UniProt O75592), the “log2 mean competition ratio” value is -0.00385.

For the target MYCBP2 C1497 (UniProt O75592), the “log2 mean competition ratio” value was -0.0774.

Consider MTFMT C365 (UniProt Q96DP5), for which the “log2 mean competition ratio” value came to 0.527.

Consider MTARC1 C273, for which the “log2 mean competition ratio” value is -0.121.

As to MYCBP2 C2169 (UniProt O75592), the “log2 mean competition ratio” value is -0.299.

Turning to MYO1B C310 (UniProt O43795), the “log2 mean competition ratio” value is -0.177.

MTHFS C180 (UniProt P49914): the “log2 mean competition ratio” value was found to be 0.043.

For MTERF4 C69 (UniProt Q7Z6M4), the “log2 mean competition ratio” value was 0.329.

Take “MTMR1_(C170,C170,C176,C176) (UniProt Q13613)”: the “log2 mean competition ratio” value amounted to 0.0974.

For MYO1B C483 (UniProt O43795), the “log2 mean competition ratio” value was -0.436.

Regarding MSH3 C847 (UniProt P20585), the “log2 mean competition ratio” value stood at 0.00809.

With MRPL18 C125 (UniProt Q9H0U6), the “log2 mean competition ratio” value is -0.0962.

With MRPL27 C88 (UniProt Q9P0M9), the “log2 mean competition ratio” value was -0.0685.

Turning to MTM1 C375 (UniProt Q13496), the “log2 mean competition ratio” value was -0.444.

For the target MTREX C938 (UniProt P42285), the “log2 mean competition ratio” value is 0.141.

Regarding MSH6 C88 (UniProt P52701), the “log2 mean competition ratio” value is 0.383.

MYO9B C2028 (UniProt Q13459): the “log2 mean competition ratio” value was -0.576.

Take MSL2 C476 (UniProt Q9HCI7): the “log2 mean competition ratio” value stood at 0.0599.

Turning to MYORG C125, the “log2 mean competition ratio” value was found to be 0.0569.

Consider MYSM1 C822 (UniProt Q5VVJ2), for which the “log2 mean competition ratio” value is -0.0638.

Regarding MRPL44 C167 (UniProt Q9H9J2), the “log2 mean competition ratio” value is 0.273.

As to MTMR10 C104 (UniProt Q9NXD2), the “log2 mean competition ratio” value worked out at 0.324.

For MTR C432 (UniProt Q99707), the “log2 mean competition ratio” value was -0.0736.

With N4BP2 C1096 (UniProt Q86UW6), the “log2 mean competition ratio” value was found to be 0.273.

Turning to MTHFSD C47 (UniProt Q2M296), the “log2 mean competition ratio” value amounted to 0.391.

On to MYH9 C1379 (UniProt P35579), for which the “log2 mean competition ratio” value is -0.359.

Compound in a further assay: ClCC(=O)N[C@H]1CCCc2ccccc12
The assay is described as above. To be noted: 50 µM; treatment time: 4 h; cell line lysate: HEK293T. The method, then: as §1
Take MTG1 C23 (UniProt Q9BT17): the “log2 mean competition ratio” value stood at 0.689.

Regarding MSH6 C579 (UniProt P52701), the “log2 mean competition ratio” value is -0.151.

In the case of MVD C108 (UniProt P53602), the “log2 mean competition ratio” value is 0.0393.

For MRPS2 C162 (UniProt Q9Y399), the “log2 mean competition ratio” value was -0.121.

As for MRPL53 C21 (UniProt Q96EL3), the “log2 mean competition ratio” value came to 1.01.

With MYO1E C586 (UniProt Q12965), the “log2 mean competition ratio” value came to 0.213.

With MTMR4 C755 (UniProt Q9NYA4), the “log2 mean competition ratio” value was -0.289.

Turning to MTO1 C707 (UniProt Q9Y2Z2), the “log2 mean competition ratio” value was -0.36.

Take MTMR14 C429 (UniProt Q8NCE2): the “log2 mean competition ratio” value came to 0.0695.

As to NAA20 C9 (UniProt P61599), the “log2 mean competition ratio” value was -0.00764.

For the target MRPL53 C49 (UniProt Q96EL3), the “log2 mean competition ratio” value is -0.0665.

Consider MYCBP2 C1475 (UniProt O75592), for which the “log2 mean competition ratio” value amounted to 0.113.

For MYCBP2 C1497 (UniProt O75592), the “log2 mean competition ratio” value was 0.684.

As for MTFMT C365 (UniProt Q96DP5), the “log2 mean competition ratio” value turned out to be 0.189.

With MTARC1 C273, the “log2 mean competition ratio” value is -0.263.

With MYCBP2 C2169 (UniProt O75592), the “log2 mean competition ratio” value is 0.0907.

Turning to MYO1B C310 (UniProt O43795), the “log2 mean competition ratio” value is -0.233.

Consider MTHFS C180 (UniProt P49914), for which the “log2 mean competition ratio” value was determined as 0.778.

Take MTERF4 C69 (UniProt Q7Z6M4): the “log2 mean competition ratio” value is -0.116.

For the target “MTMR1_(C170,C170,C176,C176) (UniProt Q13613)”, the “log2 mean competition ratio” value was -0.696.

Regarding MYO1B C483 (UniProt O43795), the “log2 mean competition ratio” value was 0.345.

With MSH3 C847 (UniProt P20585), the “log2 mean competition ratio” value was -0.275.

With MRPL18 C125 (UniProt Q9H0U6), the “log2 mean competition ratio” value was determined as 0.252.

On to MRPL27 C88 (UniProt Q9P0M9), for which the “log2 mean competition ratio” value is -0.187.

As to MTM1 C375 (UniProt Q13496), the “log2 mean competition ratio” value is -0.217.

In the case of MTREX C938 (UniProt P42285), the “log2 mean competition ratio” value is -0.0904.

MSH6 C88 (UniProt P52701): the “log2 mean competition ratio” value was found to be 0.315.

Take MYO9B C2028 (UniProt Q13459): the “log2 mean competition ratio” value was determined as 0.0468.

As for MSL2 C476 (UniProt Q9HCI7), the “log2 mean competition ratio” value was found to be 0.0396.

As to MYORG C125, the “log2 mean competition ratio” value was -0.0959.

Regarding MYSM1 C822 (UniProt Q5VVJ2), the “log2 mean competition ratio” value is -0.241.

MRPL44 C167 (UniProt Q9H9J2): the “log2 mean competition ratio” value was -0.17.

Regarding MTMR10 C104 (UniProt Q9NXD2), the “log2 mean competition ratio” value amounted to 0.051.

On to MTR C432 (UniProt Q99707), for which the “log2 mean competition ratio” value was -0.299.

With N4BP2 C1096 (UniProt Q86UW6), the “log2 mean competition ratio” value came to 0.352.

On to MTHFSD C47 (UniProt Q2M296), for which the “log2 mean competition ratio” value came to 0.349.

MYH9 C1379 (UniProt P35579): the “log2 mean competition ratio” value is -0.756.
